Data from PubChem BioAssay AID1688 (National Center for Advancing Translational Sciences (NCATS), 2009).
Among all 220,000 compounds or so, about 2,400 (1.1%) were called active. The inconclusive results got no clear call from the source; some entries with a clear call stand among them for comparison. Calls follow the shape of the dose curve; as a rule, active = well fitted inhibition curve with a large enough effect; inconclusive = small, poorly fitted or top-dose-only effect, or effect the other way; inactive = no such curve, though single readings can be large or run the other way. Where the call is inconclusive, the potency comes from a doubtful curve fit.

assay: qHTS Multiplex Assay to Identify Dual Action Probes in a Cell Model of Huntington: Aggregate Formation (GFP); conditions: PC12 HttQ103-GFP aggregates, Acumen cytometry, 40 h; activity change, negative = inhibition: at 46.1 µM (top of the series) unless noted; also: nearly all actives have a fitted effect of over 60% in size
Method in brief: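 Aggregate formation scored by laser-scanning cytometer (488 excitation, 500–530 emission) in lysed PC12 cells expressing Q103-GFP after 100 nM tebufenozide induction; library tested in dose series, with ATPLite reagent added in the multiplex.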
% is scaled to controls: 0 for no effect and ±100 for the full control effect; potency is read from the fitted curve at half-maximal effect.

Compound | Potency | activity change, negative = inhibition
CCC(=O)Nc1nonc1-c1nc2ccccc2n1Cc1cccc2ccccc12 | inconclusive: 8.91 µM [activator, partial curve] | –
C=CCc1cccc(/C=N/NC(=O)CCC(=O)Nc2ccc(F)cc2)c1O | inconclusive: 12.6 µM [inhibitor, partial curve] | –
O=C1C(Cl)=C(NCC2CCCO2)C(=O)N1c1ccccc1 (centres undefined) | inconclusive: 5.01 µM [inhibitor, partial curve] | –
Cc1nn(-c2ccccn2)c2c1-c1nc(N)ncc1CC2 | active: 11.2 µM | –
Cc1nn(C)cc1/C=N/NC(=S)Nc1ccccc1 | – | inactive: 18.7%
COc1ccc(N2C(S)=C(C#N)C(=O)NC2c2ccco2)cc1 (centres undefined) | – | inactive: -2.23%
Cc1nc2ccccn2c1C(=O)NCc1ccc2c(c1)OCO2 | inconclusive: 35.5 µM [inhibitor, single point] | –
O=C(Nc1nnc(C2CC2)s1)C1Cc2ccccc2CN1S(=O)(=O)c1ccccc1F (centres undefined) | inconclusive: 10 µM [inhibitor, partial curve] | –
O=C(O)CCc1nn2c3ccccc3n(Cc3ccccc3)c2nc1=O | inconclusive: 0.794 µM [inhibitor, full curve, poor fit] | –
CCOP(=O)(OCC)c1nc(/C=C/c2ccccc2)oc1NCc1ccc(OC)cc1 | inconclusive: 35.5 µM [inhibitor, single point] | –
Cc1ccc(Oc2ccc(NC(=O)c3ccco3)cc2)cc1 | active: 22.4 µM | –
CCOC(=O)c1cnc(-n2nc(C)cc2C)nc1NNc1nc(-c2ccccc2)cc(-c2ccccc2)n1 | active: 10 µM | –
O=C(Nc1ccc(Cl)cc1)Nc1nnc(-c2ccncc2)s1 | inconclusive: 2 µM [inhibitor, full curve, poor fit] | –
O=C(N/N=C\c1cn(-c2ccccc2)nc1-c1ccccc1)c1ccc(Br)o1 | active: 25.1 µM | –
CCn1c(SCC(=O)Nc2cccc(NC(=O)c3cccs3)c2)nnc1-c1ccncc1 | inconclusive: 35.5 µM [activator, single point] | –
COCCCN(C(=S)NC(=O)c1ccc(Br)cc1)c1c(N)n(Cc2ccccc2)c(=O)[nH]c1=O | – | inactive: 18.3%
CC(=O)c1cn(CC(=O)NCc2ccc3c(c2)OCO3)c2ccccc12 | inconclusive: 10 µM [inhibitor, partial curve] | –
Cc1ccc2nc(N/N=C/c3ccccc3C#N)nc(-c3ccccc3)c2c1 | inconclusive: 35.5 µM [inhibitor, single point] | –
Cc1ccc(Cn2ccc(NC(=O)c3cc(-c4ccco4)on3)n2)cc1 | – | inactive: 9.57%
Cc1cc(O)cc2c1O[C@](C)(CCC[C@H](C)CCC[C@H](C)CCCC(C)C)CC2 | – | inactive: 6.43%
C=CCN(c1ccc(C(=O)NCCc2ccccc2)cc1)S(C)(=O)=O | – | inactive: 2.52%
Cc1ccc(Cn2ncc3c(N4CCN(c5ccc(C)cc5)CC4)ncnc32)cc1 | inconclusive: 7.08 µM [inhibitor, partial curve] | –
CC1(C)CC(=O)C2=C(C1)OC(N)=C(C#N)C2C1CC=CCC1 (centres undefined) | – | inactive: -15.2%
O=C(CCSc1ccc(Cl)cc1)NC12CC3CC(CC(C3)C1)C2 | inconclusive: 11.2 µM [inhibitor, single point] | –
CC(C)c1ccc(S(=O)(=O)/N=C2/C=C(Sc3ncn[nH]3)C(=O)c3ccccc32)cc1 | active: 3.55 µM | –

Another view of part of the listing above.
Compound,Potency,"activity change, negative = inhibition"
O=C(Nc1ccc(Cl)cc1)Nc1nnc(-c2ccncc2)s1,"inconclusive: 2 µM [inhibitor, full curve, poor fit]",–
Cc1cc(O)cc2c1O[C@](C)(CCC[C@H](C)CCC[C@H](C)CCCC(C)C)CC2,–,inactive: 6.43%

The results go on:

Compound | Potency | activity change, negative = inhibition
Cc1cc(/C=N/n2cnnc2)c(C)n1-c1ccc(OCc2ccc(Cl)cc2)cc1 | active: 2.51 µM | –
Cc1ccc(Oc2nnc(-c3ccc(C)cc3)c3ccccc23)cc1 | inconclusive: 17.8 µM [inhibitor, single point] | –
COCCn1c(=O)[nH]c2cc(C(=O)NCCN3CCN(c4cccc(Cl)c4)CC3)ccc2c1=O | inconclusive: 11.2 µM [inhibitor, single point] | –
CCCC(=O)OCCNc1cc(Sc2nccn2C)c2nonc2c1[N+](=O)[O-] | active: 11.2 µM | –
O=C(NC1CCCCCCC1)C1c2ccccc2C(=O)N1Cc1cccs1 (centres undefined) | – | inactive: 6.31%
O=C(Nc1cccc(C(F)(F)F)c1)C1CCCN1S(=O)(=O)c1cccc2cccnc12 (centres undefined) | inconclusive: 14.1 µM [inhibitor, single point] | –
CCN(CC)C(=O)CSc1nc(-c2cccs2)cc(-c2cccs2)c1C#N | – | inactive: -12.7%
COc1ccc(Cl)cc1NC(=O)CN1CCCC1 | – | inactive: -7.16%
COc1ccc(NC(=O)CC2(Cc3ccccc3)CCOC(C)(C)C2)cc1 (centres undefined) | inconclusive: 0.631 µM [inhibitor, single point] | –
Cc1cc(C(=O)N/N=C/c2cc(Br)cc([N+](=O)[O-])c2O)c2ccccc2n1 | inconclusive: 15.8 µM [inhibitor, single point] | –
Cc1[nH]n(-c2ccc(F)cc2)c(=O)c1/C=N/c1sc2c(c1C#N)CCCC2 | – | inactive: -6.68%
Cc1c(NC(=O)CSc2cccc3cccnc23)c(=O)n(-c2ccccc2)n1C | inconclusive: 31.6 µM [activator, single point] | –
Cc1cc(N2CCN(S(=O)(=O)c3ccc(C)c(C)c3)CC2)c2ccccc2n1 | inconclusive: 35.5 µM [inhibitor, single point] | –
COc1ccc(NC(=O)CCn2nc(C)cc2C)cc1 | inconclusive: 0.0891 µM [inhibitor, partial curve, poor fit] | –
CCOc1cc(/C=C(/C#N)C(=O)Nc2ccc(O)cc2)cc(Br)c1O | inconclusive: 12.6 µM [activator, partial curve] | –
CC(CCc1ccccc1)NC(=O)c1ccco1 (centres undefined) | – | inactive: -16.2%
O=C(c1ccccc1)N1CCSc2sccc2C1=O | inconclusive: 14.1 µM [inhibitor, single point] | –
O=C(Nc1ccc([N+](=O)[O-])cc1)Nc1ccc(Cl)cc1F | inconclusive: 22.4 µM [inhibitor, single point] | –
c1ccc(-c2ccc(-c3ccccn3)nn2)nc1 | inconclusive: 35.5 µM [inhibitor, single point] | –
O=C(C(F)C(F)(F)F)N1CCN(c2ccccc2)CC1 (centres undefined) | – | inactive: -0.286%
CC(NC(=O)CSc1ccccc1C(=O)O)C1CC2CCC1C2 (centres undefined) | – | inactive: -2.3%
c1ccc(C2=Nn3c(nnc3-c3cccs3)SC2)cc1 | – | inactive: -2.47% [at 9.22 µM]
COc1ccccc1N1CCN(C/C(O)=C(\C#N)c2nc(-c3ccccc3)cs2)CC1 | – | inactive: -9.85%
O=C(Nc1ccccc1)N1CCN(c2nc3ccccc3s2)CC1 | inconclusive: 0.282 µM [activator, full curve, poor fit] | –
O=C(CN1C(=O)C2CC=CCC2C1=O)NCc1cccs1 (centres undefined) | – | inactive: 6.59%

Compound | Potency | activity change, negative = inhibition
COCCNC(=O)c1snc2ccc(Cl)cc12 | active: 10 µM | –
COc1ccc(-c2nc(NC(=O)c3cc(C(C)(C)C)nn3C)sc2C)cc1 | inconclusive: 5.62 µM [inhibitor, partial curve] | –
Cc1ccc(NC(=O)c2ccc(NCCCN3CCOCC3)c([N+](=O)[O-])c2)cc1Cl | active: 25.1 µM | –
C=CCOc1ccc(Br)cc1CNC(C)(C)C | inconclusive: 0.501 µM [activator, full curve, poor fit] | –
Cc1cc(=O)c2ccc3ccccc3c2[nH]1 | inconclusive: 14.1 µM [inhibitor, single point] | –
Nc1nsc2ccccc12 | – | inactive: -6.69%
CC(C)Cn1c(N)c(C(=O)COC(=O)c2cc(C(F)(F)F)nc3c(C(F)(F)F)cccc23)c(=O)n(C)c1=O | inconclusive: 35.5 µM [activator, single point] | –
Cc1cccc(NC(=O)c2nc(-c3ccccc3)n(-c3ccccc3)n2)c1C | – | inactive: 0.939%
CCC(CC)C(=O)Nc1cccc(C(=O)NCc2ccco2)c1 | – | inactive: 18.2%
N=C1/C(=C/c2cccn2Cc2ccc(F)cc2)C(=O)N=C2SC=CN12 | active: 0.0141 µM | –
CC(C)OCC(O)CS(=O)Cc1ccccc1 (centres undefined) | inconclusive: 35.5 µM [activator, partial curve] | –
Cc1ccc(Nc2nc3nonc3[nH]c2=O)cc1 | inconclusive: 12.6 µM [inhibitor, single point] | –
C/C(=N\NC(=S)NCc1ccccc1)c1ccc(Br)cc1 | inconclusive: 31.6 µM [inhibitor, single point] | –
O=C(Nc1ccccc1N1CCOCC1)c1ccc(N2CCOCC2)c([N+](=O)[O-])c1 | – | inactive: 20%
O=C(c1cnn(-c2ccccc2)c1)c1ccccc1O | active: 11.2 µM | –
COc1ccc(-c2nnc(SC(C)C(=O)Nc3ccc4c(c3)OCCO4)o2)cc1 (centres undefined) | inconclusive: 0.447 µM [inhibitor, full curve, poor fit] | –
Cc1ccc(C(c2nnnn2C2CCCCC2)N(C)C2CCCCC2)cc1 (centres undefined) | active: 11.2 µM | –
COc1cccc(CNC(=O)CNC(=S)N(Cc2ccccc2)Cc2ccccc2F)c1 | inconclusive: 35.5 µM [inhibitor, single point] | –
COc1cccc2c(N/N=C/c3ccco3)cc(C)nc12 | inconclusive: 0.562 µM [activator, full curve, poor fit] | –
Cc1cc(C)c(S(C)(=O)=O)c(S(=O)c2ccc(Cl)cc2)n1 (centres undefined) | inconclusive: 35.5 µM [activator, partial curve] | –
O=C1CC(Sc2ncccn2)C(=O)N1c1ccccc1C(F)(F)F (centres undefined) | inconclusive: 0.562 µM [activator, single point] | –
CC(NC(=S)NCCCN1CCOCC1)C12CC3CC(CC(C3)C1)C2 (centres undefined) | – | inactive: -0.866%
CC1CCCCC1NC(=O)/C(C#N)=C/C=C/c1ccccc1[N+](=O)[O-] (centres undefined) | inconclusive: 5.62 µM [activator, single point] | –
O=C(Cc1cccs1)N1CCC(c2nc3c(nnn3Cc3ccc(F)cc3)c(=O)[nH]2)CC1 | inconclusive: 11.2 µM [activator, partial curve] | –

Reformatted as a markdown table: part of the list above.

| Compound | Potency | activity change, negative = inhibition |
| --- | --- | --- |
| Cc1cc(C)c(S(C)(=O)=O)c(S(=O)c2ccc(Cl)cc2)n1 (centres undefined) | inconclusive: 35.5 µM [activator, partial curve] | – |
| O=C1CC(Sc2ncccn2)C(=O)N1c1ccccc1C(F)(F)F (centres undefined) | inconclusive: 0.562 µM [activator, single point] | – |
